No constants are given. Whether binding was seen depends on the method and setting. In cells and extracts the contact can be indirect. These calls come from enrichment with a bait or labelling near it, and not all partners need be listed. Sequences can lack the tags named with a protein.
biological target: T1, Chlamydomonas CDKL5-GFP (Chlamydomonas reinhardtii) (UniProt L7S2P1); test: affinity purification with mass spectrometry; anti-GFP immunoprecipitation of CDKL5-GFP from whole-cell lysates of lf5 CDKL5-GFP-TG cells, precipitate analysed by MS; untransformed lf5 lysate as control; two independent experiments; details in S1 Text
T1 sequence: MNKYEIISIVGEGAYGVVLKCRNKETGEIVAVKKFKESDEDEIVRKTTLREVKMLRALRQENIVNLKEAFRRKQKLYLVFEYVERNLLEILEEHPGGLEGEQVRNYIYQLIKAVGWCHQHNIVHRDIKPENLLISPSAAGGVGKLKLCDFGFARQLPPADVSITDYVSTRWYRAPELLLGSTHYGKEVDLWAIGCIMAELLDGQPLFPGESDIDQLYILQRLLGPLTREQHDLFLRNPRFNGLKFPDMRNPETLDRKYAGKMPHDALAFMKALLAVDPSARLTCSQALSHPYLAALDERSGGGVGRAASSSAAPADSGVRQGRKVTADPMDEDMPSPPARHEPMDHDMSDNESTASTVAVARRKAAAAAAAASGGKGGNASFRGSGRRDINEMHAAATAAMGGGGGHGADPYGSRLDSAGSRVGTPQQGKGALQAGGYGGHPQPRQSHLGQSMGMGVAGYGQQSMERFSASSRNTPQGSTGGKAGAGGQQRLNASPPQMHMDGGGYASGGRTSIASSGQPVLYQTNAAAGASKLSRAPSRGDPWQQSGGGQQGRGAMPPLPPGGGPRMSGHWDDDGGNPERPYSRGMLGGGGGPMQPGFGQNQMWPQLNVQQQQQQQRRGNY

Row | Substance | binding
1 | FAP365 | binds
2 | Cre12.g499500.t1.1 (enzyme) | binds
3 | FAP93 | binds
4 | Cre02.g075900.t1.1 (enzyme) | binds
5 | FAP430 | binds

— PMC12711092
